Values quoted from earlier work in US20040018253A1, “Use of CYP2D6 inhibitors in combination therapies” (priority 1999, published 2004).

Columns and labels:
[1] = increasing dose; not observed in poor metabolizers; cited from earlier work
[2] = poor vs extensive metabolizers; cited from earlier work

SMILES: CCCNCC(O)COc1ccccc1C(=O)CCc1ccccc1 (centres unmarked) [propafenone]
- dose-exposure relationship [1]: supraproportional
- exposure after oral administration, PM's vs. EM's [2]: 4.2 fold
